According to patent US20240358735A1, “THERAPEUTIC COMPOSITIONS AND RELATED METHODS” (BOYCE THOMPSON INSTITUTE FOR PLANT RESEARCH, INC., priority 2021, published 2024):

System: Cel-cest-1.2 mutants
Experiment: Comparative metabolomics (HPLC-HRMS) of Cel-cest-1.2 mutants versus wildtype C. elegans (N2)
Conditions: abundance of the metabolite in Cel-cest-1.2 mutants compared to C. elegans wildtype (N2)

In order of falling “Cel-cest-1.2 fold over WT (N2), average of 4 repeats” value:
1. NCC(O)c1ccc(C[C@@H]2O[C@H](COC(=O)c3ccc[nH]3)[C@@H](O)[C@H](OP(=O)(O)O)[C@H]2OC(=O)c2ccccc2N)cc1 (stereo partly drawn) [oglu#1401]  0.01959
2. Nc1ccccc1C(=O)O[C@@H]1[C@@H](CP(=O)(O)O)[C@H](O)[C@@H](COC(=O)Cc2ccc(O)cc2)O[C@H]1n1ccc2ccccc21 [iglu#86]  0.01799
3. Nc1ccccc1C(=O)OC[C@H]1O[C@@H](n2ccc3ccccc32)[C@H](OC(=O)c2ccc(O)cc2)[C@@H](CP(=O)(O)O)[C@@H]1O [iglu#75]  0.01522
4. O=C(/C=C/c1cnc[nH]1)OC[C@H]1O[C@@H](n2ccc3ccccc32)[C@H](OC(=O)c2ccccc2)[C@@H](OP(=O)(O)O)[C@@H]1O [iglu#69]  0.01464
5. CCC(=O)OC1C(OP(=O)(O)O)C(O)C(COC(=O)c2cccnc2)OC1n1ccc2ccccc21 (stereo not drawn) [iglu#21]  0.0136
6. Nc1ccccc1C(=O)O[C@@H]1O[C@H](CO)[C@@H](O)[C@H](OP(=O)(O)O)[C@H]1OC(=O)c1ccccc1N [angl#401]  0.01012
7. CCC/C=C/C=C\C=C\C(=O)OC[C@H]1O[C@@H](Oc2ccc(CCN)cc2)[C@H](OC(=O)c2ccccc2N)[C@@H](OP(=O)(O)O)[C@@H]1O [tyglu#50]  0.008897
8. Nc1ccccc1C(=O)OCC1OC(n2ccc3ccccc32)C(OC(=O)c2ccccc2)C(OP(=O)(O)O)C1O (stereo not drawn) [iglu#65]  0.008342
9. CCCC(=O)OC[C@H]1O[C@@H](n2ccc3ccccc32)[C@H](OC(=O)c2cccnc2)[C@@H](OP(=O)(O)O)[C@@H]1O [iglu#92]  0.008002
10. Nc1ccccc1C(=O)C[C@@H]1O[C@H](COC(=O)Cc2ccc(O)cc2)[C@@H](O)[C@H](OP(=O)(O)O)[C@H]1OC(=O)c1ccccc1N [angl#50]  0.007479
11. Nc1ccccc1C(=O)C[C@@H]1O[C@H](COC(=O)c2ccc[nH]2)[C@@H](O)[C@H](OP(=O)(O)O)[C@H]1OC(=O)c1ccccc1N [angl#52]  0.006179
12. Nc1ccccc1C(=O)C[C@@H]1O[C@H](COC(=O)c2ccc[nH]2)[C@@H](O)[C@H](OP(=O)(O)O)[C@H]1OC(=O)c1ccccc1N [angl#51]  0.005817
13. NCCc1ccc(OC2OC(COC(=O)c3ccccc3N)C(O)C(OP(=O)(O)O)C2OC(=O)C(N)Cc2ccccc2)cc1 (stereo not drawn) [tyglu#42]  0.004349
14. CCC(=O)O[C@H]1[C@H](OC(=O)c2ccccc2N)O[C@H](CO)[C@@H](O)[C@@H]1OP(=O)(O)O [angl#12]  0.004249
15. CCC/C=C/C(=O)OCC1OC(OC(=O)c2cccnc2)C(OC(=O)c2cccnc2)C(OP(=O)(O)O)C1O (stereo not drawn) [nglu#8]  0.004243
16. O=C(OC[C@H]1O[C@@H](n2ccc3cc(O)ccc32)[C@H](OC(=O)c2cccnc2)[C@@H](OP(=O)(O)O)[C@@H]1O)c1ccccc1 [higlu#4]  0.004004
17. Nc1ccccc1C(=O)C[C@@H]1O[C@H](COC(=O)c2ccc(O)cc2)[C@@H](O)[C@H](OP(=O)(O)O)[C@H]1OC(=O)c1ccc(O)cc1 [angl#47]  0.003957
18. C/C=C(\C)C(=O)OCC1OC(OC(=O)c2cccnc2)C(OC(=O)c2ccccc2)C(OP(=O)(O)O)C1O (stereo not drawn) [nglu#3]  0.003827
19. Cn1c(N)nc2c(ncn2C2OC(CO)C(O)C(OP(=O)(O)O)C2OC(=O)c2ccccc2)c1=O (stereo not drawn) [mgglu#201]  0.003821
20. CC(C)CC(=O)OC1C(OC(=O)c2ccccc2)OC(COC(=O)c2cccnc2)C(O)C1OP(=O)(O)O (stereo not drawn) [bzglu#4]  0.003387
21. O=C(OC[C@H]1O[C@@H](n2ccc3ccccc32)[C@H](OC(=O)c2ccccc2)[C@@H](OP(=O)(O)O)[C@@H]1O)c1cccnc1 [iglu#36]  0.003368
22. CCC(=O)OC1C(OP(=O)(O)O)C(O)C(COC(=O)c2cccnc2)OC1n1ccc2ccccc21 (stereo not drawn) [iglu#19]  0.00262
23. O=C(OC[C@H]1O[C@@H](n2ccc3ccccc32)[C@H](OC(=O)c2ccccn2)[C@@H](OP(=O)(O)O)[C@@H]1O)c1ccccc1 [iglu#53]  0.002592
24. C/C=C(\C)C(=O)OC[C@H]1O[C@@H](Cc2ccc(C(O)CN)cc2)[C@H](OC(=O)c2ccccc2N)[C@@H](OP(=O)(O)O)[C@@H]1O (stereo partly drawn) [oglu#10]  0.002545
25. NCCc1ccc(O[C@@H]2O[C@H](COC(=O)/C=C/c3c[nH]cn3)[C@@H](O)[C@H](OP(=O)(O)O)[C@H]2OC(=O)c2ccccc2N)cc1 [tyglu#38]  0.001958
26. O=C(O[C@@H]1[C@@H](OP(=O)(O)O)[C@H](O)[C@@H](CO)O[C@H]1n1ccc2ccccc21)c1ccccn1 [iglu#601]  0.001845
27. Nc1ccccc1C(=O)O[C@@H]1O[C@H](CO)[C@@H](O)[C@H](OP(=O)(O)O)[C@H]1OC(=O)c1ccccc1 [angl#161]  0.00178
28. NCCc1ccc(O[C@@H]2O[C@H](COC(=O)c3ccc(O)cc3)[C@@H](O)[C@H](OP(=O)(O)O)[C@H]2OC(=O)c2ccccc2N)cc1 [tyglu#35]  0.001744
29. Nc1ccccc1C(=O)O[C@@H]1O[C@H](COC(=O)c2ccccc2)[C@@H](O)[C@H](OP(=O)(O)O)[C@H]1OC(=O)c1cccnc1 [angl#29]  0.001518
30. C/C=C(\C)C(=O)O[C@@H]1[C@@H](OP(=O)(O)O)[C@H](O)[C@@H](COC(=O)c2cccnc2)O[C@H]1n1ccc2ccccc21 [iglu#31]  0.001403
31. O=C(OC[C@H]1O[C@@H](n2ccc3cc(O)ccc32)[C@H](OC(=O)c2ccccc2)[C@@H](OP(=O)(O)O)[C@@H]1O)c1cccnc1 [higlu#3]  0.001182
32. Nc1ccccc1C(=O)O[C@@H]1[C@@H](OP(=O)(O)O)[C@H](O)[C@@H](COC(=O)/C=C/c2c[nH]cn2)O[C@H]1n1ccc2ccccc21 [iglu#82]  0.001108
33. CC(C)CC(=O)O[C@@H]1[C@@H](OP(=O)(O)O)[C@H](O)[C@@H](CO)O[C@H]1n1ccc2ccccc21 [iglu#141]  0.0009611
34. Nc1ccccc1C(=O)OCC1OC(n2ccc3ccccc32)C(OC(=O)Cc2ccccc2)C(OP(=O)(O)O)C1O (stereo not drawn) [iglu#72]  0.0009403
35. CC(CCCCC(=O)OC1C(Oc2ccc(CCN)cc2)OC(COC(=O)c2ccccc2N)C(O)C1OP(=O)(O)O)OC1OC(C)C(O)CC1O (stereo not drawn) [tyglas#1]  0.0008411
36. Nc1ccccc1C(=O)O[C@@H]1O[C@H](COC(=O)c2cccnc2)[C@@H](O)[C@H](OP(=O)(O)O)[C@H]1O [angl#10]  0.0007813
37. C/C=C(\C)C(O)OC1C(CC(=O)c2ccccc2N)OC(COC(=O)C(N)Cc2ccccc2)C(O)C1OP(=O)(O)O (stereo not drawn) [angl#34]  0.0007289
38. CCCCCC(=O)CC(=O)OC[C@H]1O[C@@H](Cc2ccc(C(O)CN)cc2)[C@H](OC(=O)c2ccccc2N)[C@@H](OP(=O)(O)O)[C@@H]1O (stereo partly drawn) [oglu#22]  0.0006312
39. O=C(C[C@@H]1O[C@H](COC(=O)c2ccc[nH]2)[C@@H](O)[C@H](OP(=O)(O)O)[C@H]1OC(=O)c1ccc[nH]1)c1ccccc1 [bzglu#9]  0.0006298
40. Nc1ccccc1C(=O)C[C@@H]1O[C@H](COC(=O)c2ccccc2)[C@@H](O)[C@H](OP(=O)(O)O)[C@H]1OC(=O)c1ccccc1 [angl#70]  0.0005523
41. O=C(C[C@@H]1O[C@H](COC(=O)c2ccc[nH]2)[C@@H](O)[C@H](OP(=O)(O)O)[C@H]1OC(=O)c1ccc[nH]1)c1ccccc1 [bzglu#10]  0.000478
42. C/C=C(\C)C(=O)O[C@H]1[C@H](Oc2ccc(CCN)cc2)O[C@H](COC(=O)c2ccc[nH]2)[C@@H](O)[C@@H]1OP(=O)(O)O [tyglu#20]  0.0003518
43. C[C@H](CC/C=C/C(=O)OC[C@H]1O[C@@H](n2ccc3cc(O)ccc32)[C@H](OC(=O)c2ccccc2)[C@@H](OP(=O)(O)O)[C@@H]1O)O[C@@H]1O[C@@H](C)[C@H](O)C[C@H]1O [higlas#7]  0.0002976
44. O=C(O[C@@H]1[C@@H](OP(=O)(O)O)[C@H](O)[C@@H](CO)O[C@H]1n1ccc2ccccc21)c1ccc[nH]1 [iglu#101, (2R,3R,4S,5R,6R)-5-hydroxy-6-(hydroxymethyl)-2-(1H-indol-1-yl)-4-(phosphonooxy)tetrahydro-2H-pyran-3-yl 1H-pyrrole-2-carboxylate]  0.0002768
45. Nc1ccccc1C(=O)O[C@@H]1[C@@H](OP(=O)(O)O)[C@H](O)[C@@H](COC(=O)c2ccc[nH]2)O[C@H]1n1ccc2ccccc21 [iglu#58]  0.0001802
46. O=C(O[C@@H]1[C@@H](OP(=O)(O)O)[C@H](O)[C@@H](COC(=O)c2ccc[nH]2)O[C@H]1n1ccc2ccccc21)c1cccnc1 [iglu#40]  0.000169
47. C/C=C(\C)C(=O)OC[C@H]1O[C@@H](n2ccc3ccccc32)[C@H](OC(=O)c2ccc[nH]2)[C@@H](OP(=O)(O)O)[C@@H]1O [iglu#22]  0.0001619
48. C/C=C(\C)C(=O)OC[C@H]1O[C@@H](CC(=O)c2ccccc2N)[C@H](OC(=O)c2ccccc2)[C@@H](O)[C@@H]1O [angl#42]  0.00007037
49. Nc1ccccc1C(=O)OC[C@H]1O[C@@H](n2ccc3ccccc32)[C@H](OC(=O)c2ccccc2N)[C@@H](CP(=O)(O)O)[C@@H]1O [iglu#74]  0.00003983
50. C/C=C(\C)C(=O)OC[C@H]1O[C@@H](OC(=O)c2ccccc2N)[C@H](OC(=O)c2ccccc2N)[C@@H](OP(=O)(O)O)[C@@H]1O [iglu#88]  0.00003421

Same assay, conditions: relative to wildtype C. elegans

`Nc1ccccc1C(=O)OC[C@H]1O[C@@H](n2ccc3ccccc32)[C@H](O)[C@@H](OP(=O)(O)O)[C@@H]1O` [iglu #4] was tested, and the “production in the Cel-cest-1.2 mutant (in words)” value was “not affected”.
